Results are given in words; binding and its absence hold for the method and conditions named. Binding seen in cells or lysates may run through a third protein. Some binding calls cover weakened binding; strength is not graded here.
Biological target: T1, Aspartate β-hydroxylase (human (endogenous in BGC823)) (UniProt Q12797)
T1 sequence: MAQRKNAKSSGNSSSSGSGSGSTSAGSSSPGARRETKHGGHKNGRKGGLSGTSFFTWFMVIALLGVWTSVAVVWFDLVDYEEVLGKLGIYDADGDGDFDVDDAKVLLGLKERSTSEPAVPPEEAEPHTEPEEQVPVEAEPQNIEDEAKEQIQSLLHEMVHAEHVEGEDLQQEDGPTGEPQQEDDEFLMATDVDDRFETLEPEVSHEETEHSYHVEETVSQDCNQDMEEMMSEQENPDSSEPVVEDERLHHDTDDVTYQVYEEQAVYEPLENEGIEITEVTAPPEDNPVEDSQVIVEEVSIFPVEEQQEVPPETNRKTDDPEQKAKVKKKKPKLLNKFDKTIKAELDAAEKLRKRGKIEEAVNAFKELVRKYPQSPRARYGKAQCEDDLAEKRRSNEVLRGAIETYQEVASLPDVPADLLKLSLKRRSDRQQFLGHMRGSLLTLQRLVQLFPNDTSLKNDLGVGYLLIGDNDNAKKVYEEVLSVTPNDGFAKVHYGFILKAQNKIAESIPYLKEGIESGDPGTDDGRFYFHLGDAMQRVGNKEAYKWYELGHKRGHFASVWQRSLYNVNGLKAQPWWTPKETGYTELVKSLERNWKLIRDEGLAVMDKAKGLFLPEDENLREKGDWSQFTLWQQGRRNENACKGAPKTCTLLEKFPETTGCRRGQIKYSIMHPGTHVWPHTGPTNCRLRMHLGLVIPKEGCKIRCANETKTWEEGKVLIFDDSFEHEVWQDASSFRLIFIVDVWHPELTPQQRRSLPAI
Assay: co-IP; BGC823 lysate (IP lysis buffer: 20 mM Tris-HCl pH 7.5, 150 mM NaCl, 10% glycerol, 1 mM EDTA, 1% Triton X-100, 1 mM DTT); anti-ASPH and G/A beads at 4 °C overnight; Western blot with LAPTM4B antibody

binding: binds
B1: LAPTM4B (protein, UniProt Q86VI4 1-317)
chain: MTSRTRVTWPSPPRPLPVPAAAAVAFGAKGTDPAEARSSRGIEEAGPRAHGRAGREPERRRSRQQRRGGLQARRSTLLKTCARARATAPGAMKMVAPWTRFYSNSCCLCCHVRTGTILLGVWYLIINAVVLLILLSALADPDQYNFSSSELGGDFEFMDDANMCIAIAISLLMILICAMATYGAYKQRAAWIIPFFCYQIFDFALNMLVAITVLIYPNSIQEYIRQLPPNFPYRDDVMSVNPTCLVLIILLFISIILTFKGYLISCVWNCYRYINGRNSSDVLVYVTSNDTTVLLPPYDDATVNGAAKEPPPPYVSA
